The record followed here is article PMC12409426.

Sequences of proteins named here, by UniProt entry; tags and fusion partners are left off.
UniProt Q00987: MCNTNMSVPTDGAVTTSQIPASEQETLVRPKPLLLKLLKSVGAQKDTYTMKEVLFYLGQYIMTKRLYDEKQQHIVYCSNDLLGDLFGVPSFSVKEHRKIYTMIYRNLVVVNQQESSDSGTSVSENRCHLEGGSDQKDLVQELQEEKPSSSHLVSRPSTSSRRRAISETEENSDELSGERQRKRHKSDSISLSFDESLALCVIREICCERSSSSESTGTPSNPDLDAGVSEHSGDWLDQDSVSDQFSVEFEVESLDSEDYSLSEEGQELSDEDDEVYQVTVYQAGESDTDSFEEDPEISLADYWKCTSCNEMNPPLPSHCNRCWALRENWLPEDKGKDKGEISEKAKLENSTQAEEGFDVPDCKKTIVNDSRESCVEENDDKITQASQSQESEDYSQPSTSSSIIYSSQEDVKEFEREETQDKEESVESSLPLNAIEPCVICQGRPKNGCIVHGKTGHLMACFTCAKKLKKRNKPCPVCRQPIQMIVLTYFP

These are yes or no findings as the source states them, for the method shown. For part of these data: In cells and extracts the contact can be indirect. Some results given as binding are weak or reduced against the parent protein; the word gives no strength. For part of these data: Sequences can lack the tags named with a protein.

In test [1] the target is His-tagged MDM2 (recombinant, bacteria-expressed) (UniProt Q00987). Briefly: pull-down; recombinant MDM2 (0.1-1 μg) incubated with one recombinant partner, pulled down with anti-MDM2 (SMP14) agarose, IB; overnight 4 °C in 50 mM Tris-HCl pH 8.0, 50 mM NaCl, 80 mM KCl, 0.05% Tween-20; PIP2 (0-50 μM) added in some panels; both purified.
Test [2] has as its target MDM2 (endogenous) (human (endogenous in MDA-MB-231)) (UniProt Q00987). The test is described as follows: co-IP; endogenous MDM2 immunoprecipitated with anti-MDM2 (SMP14) agarose from RIPA lysates, 4 °C 24 h, IB; cells treated with vehicle or 30 μM cisplatin for 24 h.
For test [3] the target is unchanged. Briefly: proximity ligation; Duolink PLA on fixed, permeabilised cells (MDA-MB-231) treated with vehicle or 30 μM cisplatin for 24 h (PIPKIα siRNA as control); nuclear foci counted.

B1: αB-crystallin (recombinant, His-tagged) (protein, UniProt P02511 1-175)
chain: MDIAIHHPWIRRPFFPFHSPSRLFDQFFGEHLLESDLFPTSTSLSPFYLRPPSFLRAPSWFDTGLSEMRLEKDRFSVNLDVKHFSPEELKVKVLGDVIEVHGKHEERQDEHGFISREFHRKYRIPADVDPLTITSSLSSDGVLTVNGPRKQVSGPERTIPITREEKPAVTAAPKK
Regarding B1, in test [1], the binding result is “binds”.

B2: αB-crystallin (endogenous) (protein, UniProt P02511 1-175)
chain: B1 chain
Consider B2, for which the binding entry in test [2] and in test [3] was “binds” throughout.
